Results are given in words; binding and its absence hold for the method and conditions named. For part of these data: Binding seen in cells or lysates may run through a third protein. Some entries that bind do so weakly or less than the wild type. Each block holds one substance with its values, some of them ahead of it.
Assays:
[1] = target: CD40 chimeras with CFP or YFP (FIG. 3C) (Homo sapiens (Human)) (UniProt P25942); assay: flow cytometric FRET between CFP and YFP fusions
[2] = target: DR4 chimeras with CFP or YFP (FIG. 3C) (Homo sapiens (Human)) (UniProt O00220); assay: flow cytometric FRET between CFP and YFP fusions
[3] = target: N-terminal region of the ECD of p80 (yeast two-hybrid) (Homo sapiens (Human)) (UniProt P20333); assay: yeast two-hybrid interaction assay
[4] = target: p80ΔCD-YFP (Homo sapiens (Human)) (UniProt P20333); assay: flow cytometric FRET, 293T cells
[5] = target: p80 TNFR, full-length (Homo sapiens (Human)) (UniProt P20333); assay: co-immunoprecipitation with C-terminal-specific anti-p80 antibody, anti-HA blot, 293T cells
[6] = target: HA-Fas 1-210:GFP [GFP: P42212]; assay: co-immunoprecipitation with anti-GFP, anti-Fas C-terminal blot

By UniProt entry, the sequences of proteins in these tests, tags left out. Where a name states a change or a piece, a line headed by the entry shows the natural chain unless it says otherwise.
UniProt P25942: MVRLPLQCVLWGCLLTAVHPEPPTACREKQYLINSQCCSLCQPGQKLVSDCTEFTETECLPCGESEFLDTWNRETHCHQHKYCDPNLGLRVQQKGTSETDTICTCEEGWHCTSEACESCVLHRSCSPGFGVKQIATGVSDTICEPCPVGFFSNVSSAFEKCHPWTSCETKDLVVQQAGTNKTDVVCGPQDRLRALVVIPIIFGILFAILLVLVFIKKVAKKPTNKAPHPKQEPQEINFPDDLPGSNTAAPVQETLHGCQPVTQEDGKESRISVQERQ
UniProt O00220: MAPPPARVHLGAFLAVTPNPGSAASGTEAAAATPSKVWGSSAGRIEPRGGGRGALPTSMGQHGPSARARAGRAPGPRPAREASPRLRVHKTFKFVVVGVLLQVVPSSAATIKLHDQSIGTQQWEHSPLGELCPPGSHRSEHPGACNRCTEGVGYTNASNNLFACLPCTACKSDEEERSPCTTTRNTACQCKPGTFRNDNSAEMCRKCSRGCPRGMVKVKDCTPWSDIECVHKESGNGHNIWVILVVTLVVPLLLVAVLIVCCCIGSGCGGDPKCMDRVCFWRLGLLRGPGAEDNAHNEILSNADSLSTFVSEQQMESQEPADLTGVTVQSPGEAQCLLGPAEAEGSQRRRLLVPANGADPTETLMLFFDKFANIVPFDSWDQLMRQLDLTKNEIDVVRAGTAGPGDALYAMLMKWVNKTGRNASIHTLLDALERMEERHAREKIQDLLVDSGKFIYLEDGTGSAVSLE
UniProt P20333: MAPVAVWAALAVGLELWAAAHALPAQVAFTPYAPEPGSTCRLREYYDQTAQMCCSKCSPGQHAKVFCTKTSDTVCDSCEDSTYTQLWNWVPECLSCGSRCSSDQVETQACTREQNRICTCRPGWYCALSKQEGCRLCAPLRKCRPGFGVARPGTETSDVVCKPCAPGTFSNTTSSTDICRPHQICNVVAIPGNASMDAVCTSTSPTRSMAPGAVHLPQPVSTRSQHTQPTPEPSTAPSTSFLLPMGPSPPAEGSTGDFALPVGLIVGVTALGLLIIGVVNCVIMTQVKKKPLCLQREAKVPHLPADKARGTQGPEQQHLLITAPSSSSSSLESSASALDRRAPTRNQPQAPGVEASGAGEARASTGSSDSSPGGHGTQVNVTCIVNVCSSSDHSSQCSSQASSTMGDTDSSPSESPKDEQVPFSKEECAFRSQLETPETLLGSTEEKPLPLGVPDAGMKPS
UniProt P25445: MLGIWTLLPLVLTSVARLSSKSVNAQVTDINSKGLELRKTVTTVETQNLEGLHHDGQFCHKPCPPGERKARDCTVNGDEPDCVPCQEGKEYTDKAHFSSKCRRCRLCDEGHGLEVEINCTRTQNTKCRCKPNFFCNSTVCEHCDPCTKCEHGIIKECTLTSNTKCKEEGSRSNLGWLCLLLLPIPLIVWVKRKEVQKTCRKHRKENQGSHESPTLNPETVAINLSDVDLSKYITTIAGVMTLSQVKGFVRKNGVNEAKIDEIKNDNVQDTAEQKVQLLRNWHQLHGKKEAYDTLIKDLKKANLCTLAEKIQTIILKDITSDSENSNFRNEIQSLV

Substance: DR4 chimeras with CFP or YFP (FIG. 3C) (from UniProt O00220 24-267) (receptor)
- binding [2]: binds

Substance: p80ΔCD-CFP (from UniProt P20333 23-292) (receptor)
- binding [4]: binds

Substance: p80ΔCD-HA (from UniProt P20333 23-292) (receptor)
- binding [5]: binds

Substance: wild-type (WT) Fas (from UniProt P25445 26-335) (receptor)
- binding [6]: binds

Further lines, results first:

- binding [1]: binds
Substance: CD40 chimeras with CFP or YFP (FIG. 3C) (from UniProt P25942 21-220) (receptor)

- binding [3]: binds
Substance: N-terminal region of the ECD of p80 (yeast two-hybrid) (from UniProt P20333 23-76) (receptor)
